Measurements: patent US6524814

Chains of the proteins cited; added tags and fusions are not shown.
protease inhibitor Eglin, P01051, UniProt P01051, whole entry, looked up: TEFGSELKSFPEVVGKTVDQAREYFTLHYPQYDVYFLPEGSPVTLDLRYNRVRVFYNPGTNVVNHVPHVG

Target: protease inhibitor Eglin, P01051

B1: recombinant protein encoded by the p62 clone fragment, amino acids 56 to 300 of SEQ ID NO:4 (krill-derived multifunctional protein) (protein)
chain: GPVAPRNKIVGGMEVTPHAYPWQVGLFIDDMYFCGGSIISDEWVLTAAHCMDGAGFVEVVMGAHSIHDETEATQVRATSTDFFTHENWNSFTLSNDLALIKMPAPIEFNDVIQPVCLPTYTDASDDFVGESVTLTGWGKPSDSAFGIAEQLREVDVTTITTADCQAYYGIVTDKILCIDSEGGHGSCNGDSGGPMNYVTGGVTQTRGITSFGSSTGCETGYPDGYTRVTSYLDWIESNTGIAIDP
  proteolytic activity (cleavage of the model substrate succinyl-ala-ala-pro-phe-p-nitroanilide): The proteolytic activity was inhibited by the protease inhibitor Eglin
